Laboratory results published in paper PMC10530362, “Light-Sensitive Open Channel Block of Ionotropic Glutamate Receptors by Quaternary Ammonium Azobenzene Derivatives” (International Journal of Molecular Sciences, 2023).

Test system: T1, calcium-impermeable AMPA receptors (native, hippocampal CA1 pyramidal neurons)
T1 construct: gene Gria2; native GluA2(R)-containing heteromers in isolated rat CA1 pyramidal neurons
Assay: whole-cell patch clamp, kainate-evoked current
Format: cell-based, Rattus norvegicus
Settings: dark, -70 mV, 100 µM kainate, pH 7.4, 22-24 °C

SMILES	Idrug/Icontrol at 30 μM
C=CC(=O)Nc1ccc(/N=N/c2ccc(NC(=O)C[N+](CC)(CC)CC)cc2)cc1 [AAQ]	0.77 ± 0.05
CC[N+](CC)(CC)CC(=O)Nc1ccc(N=Nc2ccc(NC(=O)C[N+](CC)(CC)CC)cc2)cc1 [QAQ]	0.89 ± 0.05
